Patent US20110318429A1
Results are given in words; binding and its absence hold for the method and conditions named. In cells and extracts the contact can be indirect. Some binding calls cover weakened binding; strength is not graded here.

The chains behind the UniProt entries cited, without tags or fusion partners. Residues count along the entry.
UniProt P60953, residues 1-188: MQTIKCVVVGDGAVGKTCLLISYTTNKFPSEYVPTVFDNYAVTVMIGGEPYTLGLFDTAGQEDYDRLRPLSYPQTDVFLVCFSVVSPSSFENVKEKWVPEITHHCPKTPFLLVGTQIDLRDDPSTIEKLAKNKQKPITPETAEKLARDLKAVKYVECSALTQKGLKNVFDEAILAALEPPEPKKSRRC
UniProt Q13153, residues 67-150: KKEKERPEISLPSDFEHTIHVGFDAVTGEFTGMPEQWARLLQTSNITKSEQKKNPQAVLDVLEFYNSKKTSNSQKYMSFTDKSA

Target: Active GTP-bound Cdc42 from A549 cell lysate (human) (UniProt P60953)
Experiment: pull-down from A549 lysate on glutathione beads, immunoblot with anti-Cdc42

binding: binds
Substance: GST-PBD fusion protein of PAK1 immobilized on glutathione beads (from UniProt Q13153 67-150)
